Experimental data as given in the supplement of paper PMC7666118.
Some of the results follow.

The chains behind the UniProt entries cited, without tags or fusion partners. Where a name states a change or a piece, a line headed by the entry shows the natural chain unless it says otherwise.
UniProt Q06203, whole entry: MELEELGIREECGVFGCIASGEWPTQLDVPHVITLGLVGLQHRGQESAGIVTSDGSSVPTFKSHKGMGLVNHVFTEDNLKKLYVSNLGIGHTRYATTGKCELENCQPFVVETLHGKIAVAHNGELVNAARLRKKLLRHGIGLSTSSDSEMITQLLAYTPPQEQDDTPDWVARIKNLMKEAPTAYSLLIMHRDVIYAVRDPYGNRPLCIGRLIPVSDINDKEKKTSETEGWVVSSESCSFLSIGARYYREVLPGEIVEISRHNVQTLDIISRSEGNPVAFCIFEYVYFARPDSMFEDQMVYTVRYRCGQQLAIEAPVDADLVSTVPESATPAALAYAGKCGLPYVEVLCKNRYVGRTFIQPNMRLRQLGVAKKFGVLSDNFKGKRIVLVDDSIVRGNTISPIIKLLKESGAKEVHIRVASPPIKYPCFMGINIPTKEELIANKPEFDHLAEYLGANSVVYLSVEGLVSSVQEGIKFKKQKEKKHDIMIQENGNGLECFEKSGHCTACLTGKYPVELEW
UniProt O15160, whole entry: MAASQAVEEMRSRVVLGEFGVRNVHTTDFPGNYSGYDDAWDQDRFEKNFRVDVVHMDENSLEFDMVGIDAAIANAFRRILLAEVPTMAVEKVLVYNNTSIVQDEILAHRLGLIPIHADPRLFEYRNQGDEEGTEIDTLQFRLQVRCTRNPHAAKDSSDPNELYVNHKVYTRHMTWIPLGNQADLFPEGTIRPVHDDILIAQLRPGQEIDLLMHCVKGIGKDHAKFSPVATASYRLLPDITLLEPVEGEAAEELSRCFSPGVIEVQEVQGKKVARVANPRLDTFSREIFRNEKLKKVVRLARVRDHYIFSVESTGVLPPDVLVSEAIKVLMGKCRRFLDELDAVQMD
UniProt Q9P035: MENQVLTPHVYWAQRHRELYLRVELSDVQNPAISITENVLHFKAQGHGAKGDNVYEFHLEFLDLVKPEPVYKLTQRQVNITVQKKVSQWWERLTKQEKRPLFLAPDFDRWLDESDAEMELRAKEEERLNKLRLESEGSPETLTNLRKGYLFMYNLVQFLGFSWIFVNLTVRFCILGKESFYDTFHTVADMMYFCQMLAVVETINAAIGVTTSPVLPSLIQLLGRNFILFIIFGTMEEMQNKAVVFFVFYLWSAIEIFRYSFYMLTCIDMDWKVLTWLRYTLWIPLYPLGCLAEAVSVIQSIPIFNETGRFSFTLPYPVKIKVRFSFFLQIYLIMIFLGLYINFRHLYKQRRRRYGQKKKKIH
UniProt Q6P2P2: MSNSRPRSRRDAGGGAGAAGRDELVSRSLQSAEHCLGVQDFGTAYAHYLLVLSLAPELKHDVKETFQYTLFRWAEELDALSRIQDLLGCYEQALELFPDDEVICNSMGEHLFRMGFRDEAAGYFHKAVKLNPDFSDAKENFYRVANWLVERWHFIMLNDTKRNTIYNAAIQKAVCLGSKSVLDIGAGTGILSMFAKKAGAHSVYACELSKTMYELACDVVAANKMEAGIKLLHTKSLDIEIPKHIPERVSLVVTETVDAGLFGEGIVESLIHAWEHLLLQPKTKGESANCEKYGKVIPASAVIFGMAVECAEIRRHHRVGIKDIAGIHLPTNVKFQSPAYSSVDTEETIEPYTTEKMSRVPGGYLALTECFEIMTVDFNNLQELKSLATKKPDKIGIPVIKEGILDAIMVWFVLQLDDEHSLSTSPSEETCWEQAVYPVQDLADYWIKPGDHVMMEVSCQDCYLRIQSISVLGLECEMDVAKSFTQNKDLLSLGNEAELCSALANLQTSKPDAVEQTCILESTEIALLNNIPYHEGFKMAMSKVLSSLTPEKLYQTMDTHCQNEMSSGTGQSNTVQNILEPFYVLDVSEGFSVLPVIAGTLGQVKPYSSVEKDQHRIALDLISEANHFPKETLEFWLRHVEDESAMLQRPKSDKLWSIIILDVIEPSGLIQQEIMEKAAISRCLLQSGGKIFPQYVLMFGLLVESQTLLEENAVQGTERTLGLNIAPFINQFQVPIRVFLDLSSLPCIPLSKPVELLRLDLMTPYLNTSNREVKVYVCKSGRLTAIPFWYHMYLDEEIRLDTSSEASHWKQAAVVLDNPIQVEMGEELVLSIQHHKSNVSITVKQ
UniProt Q7Z6K3: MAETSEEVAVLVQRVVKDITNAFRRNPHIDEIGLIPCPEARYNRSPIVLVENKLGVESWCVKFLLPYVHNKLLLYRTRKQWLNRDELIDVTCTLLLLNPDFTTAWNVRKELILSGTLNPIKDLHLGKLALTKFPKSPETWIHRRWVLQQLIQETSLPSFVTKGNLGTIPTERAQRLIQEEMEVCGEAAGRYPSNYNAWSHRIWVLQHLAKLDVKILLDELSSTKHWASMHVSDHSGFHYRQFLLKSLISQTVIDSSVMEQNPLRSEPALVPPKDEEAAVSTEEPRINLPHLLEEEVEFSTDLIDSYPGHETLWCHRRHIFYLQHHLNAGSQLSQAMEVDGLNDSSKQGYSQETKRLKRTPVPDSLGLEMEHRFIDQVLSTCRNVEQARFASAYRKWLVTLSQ
UniProt Q9UMR5: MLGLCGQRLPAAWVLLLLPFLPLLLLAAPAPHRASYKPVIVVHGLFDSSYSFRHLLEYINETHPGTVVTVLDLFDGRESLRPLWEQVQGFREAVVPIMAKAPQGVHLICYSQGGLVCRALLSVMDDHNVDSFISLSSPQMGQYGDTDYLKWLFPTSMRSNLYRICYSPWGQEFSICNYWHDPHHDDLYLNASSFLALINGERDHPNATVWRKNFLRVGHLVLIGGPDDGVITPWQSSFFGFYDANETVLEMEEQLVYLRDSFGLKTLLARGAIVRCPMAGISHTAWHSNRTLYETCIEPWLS
UniProt Q99633: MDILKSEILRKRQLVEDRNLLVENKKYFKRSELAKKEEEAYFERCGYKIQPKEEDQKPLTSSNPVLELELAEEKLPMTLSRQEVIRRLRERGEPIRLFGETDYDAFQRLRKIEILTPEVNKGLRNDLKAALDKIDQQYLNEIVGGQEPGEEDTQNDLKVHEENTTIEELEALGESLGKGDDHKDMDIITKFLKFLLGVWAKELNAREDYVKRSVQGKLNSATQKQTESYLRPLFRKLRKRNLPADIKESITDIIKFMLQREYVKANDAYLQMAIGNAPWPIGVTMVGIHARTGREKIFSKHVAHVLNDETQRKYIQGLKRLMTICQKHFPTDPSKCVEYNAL
UniProt Q8TCU6, whole entry: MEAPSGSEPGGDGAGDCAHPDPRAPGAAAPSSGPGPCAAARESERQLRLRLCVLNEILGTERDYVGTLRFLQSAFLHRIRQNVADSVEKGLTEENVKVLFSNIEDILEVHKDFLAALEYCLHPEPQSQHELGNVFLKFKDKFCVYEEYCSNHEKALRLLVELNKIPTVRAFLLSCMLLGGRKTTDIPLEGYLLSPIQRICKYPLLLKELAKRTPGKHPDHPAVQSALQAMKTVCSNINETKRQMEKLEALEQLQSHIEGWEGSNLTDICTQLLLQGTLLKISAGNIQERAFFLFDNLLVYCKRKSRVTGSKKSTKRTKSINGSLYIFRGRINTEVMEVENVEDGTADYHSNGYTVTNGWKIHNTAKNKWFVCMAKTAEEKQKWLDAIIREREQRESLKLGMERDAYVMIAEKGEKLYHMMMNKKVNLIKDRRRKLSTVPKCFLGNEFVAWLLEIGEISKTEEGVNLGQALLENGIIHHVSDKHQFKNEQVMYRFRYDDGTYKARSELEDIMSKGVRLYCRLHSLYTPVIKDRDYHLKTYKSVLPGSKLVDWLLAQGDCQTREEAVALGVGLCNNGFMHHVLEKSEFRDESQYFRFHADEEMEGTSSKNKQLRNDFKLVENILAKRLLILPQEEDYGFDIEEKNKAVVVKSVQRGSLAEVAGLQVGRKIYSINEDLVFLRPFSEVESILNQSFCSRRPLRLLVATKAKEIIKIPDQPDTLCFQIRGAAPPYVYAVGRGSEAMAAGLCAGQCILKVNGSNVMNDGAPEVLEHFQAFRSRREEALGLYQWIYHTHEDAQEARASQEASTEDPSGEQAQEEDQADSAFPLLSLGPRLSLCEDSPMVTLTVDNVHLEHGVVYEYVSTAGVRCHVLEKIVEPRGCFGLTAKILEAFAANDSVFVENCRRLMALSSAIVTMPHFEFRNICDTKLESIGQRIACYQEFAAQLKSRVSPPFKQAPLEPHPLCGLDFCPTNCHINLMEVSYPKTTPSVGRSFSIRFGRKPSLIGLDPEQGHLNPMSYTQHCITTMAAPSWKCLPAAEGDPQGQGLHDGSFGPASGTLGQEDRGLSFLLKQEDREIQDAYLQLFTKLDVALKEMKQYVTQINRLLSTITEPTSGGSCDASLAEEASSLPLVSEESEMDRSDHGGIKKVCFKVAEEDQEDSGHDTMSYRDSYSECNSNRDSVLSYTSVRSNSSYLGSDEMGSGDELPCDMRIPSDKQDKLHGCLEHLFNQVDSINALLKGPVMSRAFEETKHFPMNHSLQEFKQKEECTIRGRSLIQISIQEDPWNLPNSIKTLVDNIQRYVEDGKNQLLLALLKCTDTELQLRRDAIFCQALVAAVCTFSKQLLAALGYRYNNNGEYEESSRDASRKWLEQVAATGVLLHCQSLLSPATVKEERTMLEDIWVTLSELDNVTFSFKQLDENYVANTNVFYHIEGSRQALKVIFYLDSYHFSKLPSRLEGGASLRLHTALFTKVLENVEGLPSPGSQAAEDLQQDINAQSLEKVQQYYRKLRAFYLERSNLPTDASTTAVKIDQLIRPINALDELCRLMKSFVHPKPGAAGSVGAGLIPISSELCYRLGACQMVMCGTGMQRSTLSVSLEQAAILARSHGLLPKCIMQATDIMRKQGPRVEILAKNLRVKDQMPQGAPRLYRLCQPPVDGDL
UniProt P54098: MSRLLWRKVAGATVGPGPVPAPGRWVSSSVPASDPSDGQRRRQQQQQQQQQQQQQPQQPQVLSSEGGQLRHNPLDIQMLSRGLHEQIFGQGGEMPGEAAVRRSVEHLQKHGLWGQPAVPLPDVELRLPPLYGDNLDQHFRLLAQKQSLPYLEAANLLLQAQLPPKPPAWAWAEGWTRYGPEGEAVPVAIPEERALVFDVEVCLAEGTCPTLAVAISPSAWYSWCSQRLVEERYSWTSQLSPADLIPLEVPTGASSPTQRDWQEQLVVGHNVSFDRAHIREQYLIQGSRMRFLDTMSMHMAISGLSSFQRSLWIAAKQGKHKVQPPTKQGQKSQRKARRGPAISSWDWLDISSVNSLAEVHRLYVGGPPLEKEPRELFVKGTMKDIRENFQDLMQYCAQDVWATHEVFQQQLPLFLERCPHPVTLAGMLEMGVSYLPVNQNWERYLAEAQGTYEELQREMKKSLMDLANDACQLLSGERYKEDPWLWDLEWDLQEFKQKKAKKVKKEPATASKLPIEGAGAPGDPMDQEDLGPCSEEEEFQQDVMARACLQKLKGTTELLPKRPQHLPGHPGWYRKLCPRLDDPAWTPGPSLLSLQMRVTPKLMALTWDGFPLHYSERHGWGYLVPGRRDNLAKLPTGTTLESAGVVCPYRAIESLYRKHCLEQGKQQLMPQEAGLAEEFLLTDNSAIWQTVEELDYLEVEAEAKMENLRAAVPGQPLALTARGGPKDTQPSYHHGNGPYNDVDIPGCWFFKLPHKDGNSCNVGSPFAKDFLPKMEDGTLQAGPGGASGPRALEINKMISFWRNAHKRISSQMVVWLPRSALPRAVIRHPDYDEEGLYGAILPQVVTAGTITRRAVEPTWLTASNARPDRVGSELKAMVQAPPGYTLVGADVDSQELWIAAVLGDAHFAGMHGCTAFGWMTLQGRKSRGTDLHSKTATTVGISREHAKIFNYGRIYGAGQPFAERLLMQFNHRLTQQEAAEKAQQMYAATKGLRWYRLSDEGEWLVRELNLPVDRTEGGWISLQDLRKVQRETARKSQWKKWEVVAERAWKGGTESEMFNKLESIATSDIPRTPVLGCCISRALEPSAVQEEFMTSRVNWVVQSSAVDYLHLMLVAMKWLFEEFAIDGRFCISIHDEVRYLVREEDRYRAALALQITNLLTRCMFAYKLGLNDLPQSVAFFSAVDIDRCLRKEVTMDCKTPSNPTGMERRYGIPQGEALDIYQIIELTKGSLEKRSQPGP
UniProt O43586: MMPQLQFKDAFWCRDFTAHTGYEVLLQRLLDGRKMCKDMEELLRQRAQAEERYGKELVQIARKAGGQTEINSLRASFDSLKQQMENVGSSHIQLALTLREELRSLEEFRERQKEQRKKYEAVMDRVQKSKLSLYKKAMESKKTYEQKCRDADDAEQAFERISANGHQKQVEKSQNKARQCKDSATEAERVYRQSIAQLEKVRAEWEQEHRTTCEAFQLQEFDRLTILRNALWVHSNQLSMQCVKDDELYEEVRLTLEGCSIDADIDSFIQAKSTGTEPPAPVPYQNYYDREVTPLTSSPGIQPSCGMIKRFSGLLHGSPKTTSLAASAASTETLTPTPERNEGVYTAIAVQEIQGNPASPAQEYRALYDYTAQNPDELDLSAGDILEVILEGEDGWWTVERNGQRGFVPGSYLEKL

compound: COc1ccc(Cn2ccc3cc(C)c(C(=O)NO)cc32)cc1; experiment: dose-dependent thermal stabilisation call (2D-TPP, DLPTP, 10% FDR) (binary (1 = stabilised)); higher = stabilised by the compound; conditions: system: HL-60 intact cells; concentration range 0.04-10 µM
Experimental: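 2D thermal proteome profiling in intact HL-60 cells treated with BRD-3811 (0, 0.04, 0.29, 2, 10 uM) for 90 min at 37 C, then heated 3 min at one of 12 temperatures (42-63.9 C). Soluble protein was quantified by TMT10 MS. The value is the DLPTP call of the paper: dose-dependent thermal stabilisation over all temperatures at 10% FDR (F-test of a dose-response against a flat model); one experiment, one call per tested protein.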

Target | dose-dependent thermal stabilisation call
PPAT (UniProt Q06203) | inactive: 0
POLR1C (UniProt O15160) | inactive: 0
PTPLAD1 (UniProt Q9P035) | inactive: 0
PPP4R1 (UniProt Q8TF05) | inactive: 0
PSAP (UniProt P07602) | inactive: 0
PRMT10 (UniProt Q6P2P2) | inactive: 0
PRDX6 (UniProt P30041) | inactive: 0
PNPLA4 (UniProt P41247) | inactive: 0
PPM1B (UniProt O75688) | inactive: 0
PPP1R2 (UniProt P41236) | inactive: 0
PRPF4 (UniProt O43172) | inactive: 0
PRKAR1B (UniProt P31321) | inactive: 0
PTAR1 (UniProt Q7Z6K3) | inactive: 0
PPT2 (UniProt Q9UMR5) | inactive: 0
PRNP | inactive: 0
POLR2B (UniProt P30876) | inactive: 0
PPP2R5E (UniProt Q16537) | inactive: 0
PTPN11 (UniProt Q06124) | inactive: 0
PRPF18 (UniProt Q99633) | inactive: 0
PREX1 (UniProt Q8TCU6) | inactive: 0
PPP2CA (UniProt P67775) | inactive: 0
POLG (UniProt P54098) | inactive: 0
PPM1F (UniProt P49593) | inactive: 0
PSMA2 (UniProt P25787) | inactive: 0
POLR3F (UniProt Q9H1D9) | inactive: 0
PSMB2 (UniProt P49721) | inactive: 0
PSTPIP1 (UniProt O43586) | inactive: 0

Reformatted: entries from further up.
Target	dose-dependent thermal stabilisation call
POLG (UniProt P54098)	inactive: 0
PSMA2 (UniProt P25787)	inactive: 0
